Laboratory results published in publication PMC8948670.
These are yes or no findings as the source states them, for the method shown. Binding seen in cells or lysates may run through a third protein.

Protein sequences, listed by entry. Tags and fused reporters are not part of them. Lines headed by an entry give the natural chain unless they say otherwise; changes in a name come on top.
UniProt Q00944: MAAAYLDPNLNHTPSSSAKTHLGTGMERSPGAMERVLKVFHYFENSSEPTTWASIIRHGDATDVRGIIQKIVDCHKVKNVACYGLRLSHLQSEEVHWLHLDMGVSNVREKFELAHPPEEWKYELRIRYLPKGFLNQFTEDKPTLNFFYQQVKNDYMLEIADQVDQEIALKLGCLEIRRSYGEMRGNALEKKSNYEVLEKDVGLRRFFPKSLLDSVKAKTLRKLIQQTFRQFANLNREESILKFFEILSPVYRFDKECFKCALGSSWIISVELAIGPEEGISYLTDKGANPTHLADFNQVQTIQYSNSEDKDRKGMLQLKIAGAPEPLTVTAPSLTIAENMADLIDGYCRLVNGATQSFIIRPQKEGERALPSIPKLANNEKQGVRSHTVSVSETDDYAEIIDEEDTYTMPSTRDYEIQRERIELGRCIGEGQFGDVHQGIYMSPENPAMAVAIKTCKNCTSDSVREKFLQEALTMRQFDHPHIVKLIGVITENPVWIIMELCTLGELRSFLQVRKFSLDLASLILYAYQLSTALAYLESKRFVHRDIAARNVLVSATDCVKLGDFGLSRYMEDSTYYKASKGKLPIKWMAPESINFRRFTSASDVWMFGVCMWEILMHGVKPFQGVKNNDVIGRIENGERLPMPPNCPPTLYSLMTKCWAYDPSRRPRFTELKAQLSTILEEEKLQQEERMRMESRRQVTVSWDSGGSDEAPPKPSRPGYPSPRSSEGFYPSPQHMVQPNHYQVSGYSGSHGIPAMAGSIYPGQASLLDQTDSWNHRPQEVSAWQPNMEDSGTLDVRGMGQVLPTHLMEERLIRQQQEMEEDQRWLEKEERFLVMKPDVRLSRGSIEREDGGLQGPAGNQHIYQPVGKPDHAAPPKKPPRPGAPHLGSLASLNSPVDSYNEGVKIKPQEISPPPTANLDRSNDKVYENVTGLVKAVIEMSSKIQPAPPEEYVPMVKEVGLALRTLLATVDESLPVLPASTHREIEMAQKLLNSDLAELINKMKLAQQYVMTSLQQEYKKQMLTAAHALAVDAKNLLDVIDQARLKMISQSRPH
UniProt O00443: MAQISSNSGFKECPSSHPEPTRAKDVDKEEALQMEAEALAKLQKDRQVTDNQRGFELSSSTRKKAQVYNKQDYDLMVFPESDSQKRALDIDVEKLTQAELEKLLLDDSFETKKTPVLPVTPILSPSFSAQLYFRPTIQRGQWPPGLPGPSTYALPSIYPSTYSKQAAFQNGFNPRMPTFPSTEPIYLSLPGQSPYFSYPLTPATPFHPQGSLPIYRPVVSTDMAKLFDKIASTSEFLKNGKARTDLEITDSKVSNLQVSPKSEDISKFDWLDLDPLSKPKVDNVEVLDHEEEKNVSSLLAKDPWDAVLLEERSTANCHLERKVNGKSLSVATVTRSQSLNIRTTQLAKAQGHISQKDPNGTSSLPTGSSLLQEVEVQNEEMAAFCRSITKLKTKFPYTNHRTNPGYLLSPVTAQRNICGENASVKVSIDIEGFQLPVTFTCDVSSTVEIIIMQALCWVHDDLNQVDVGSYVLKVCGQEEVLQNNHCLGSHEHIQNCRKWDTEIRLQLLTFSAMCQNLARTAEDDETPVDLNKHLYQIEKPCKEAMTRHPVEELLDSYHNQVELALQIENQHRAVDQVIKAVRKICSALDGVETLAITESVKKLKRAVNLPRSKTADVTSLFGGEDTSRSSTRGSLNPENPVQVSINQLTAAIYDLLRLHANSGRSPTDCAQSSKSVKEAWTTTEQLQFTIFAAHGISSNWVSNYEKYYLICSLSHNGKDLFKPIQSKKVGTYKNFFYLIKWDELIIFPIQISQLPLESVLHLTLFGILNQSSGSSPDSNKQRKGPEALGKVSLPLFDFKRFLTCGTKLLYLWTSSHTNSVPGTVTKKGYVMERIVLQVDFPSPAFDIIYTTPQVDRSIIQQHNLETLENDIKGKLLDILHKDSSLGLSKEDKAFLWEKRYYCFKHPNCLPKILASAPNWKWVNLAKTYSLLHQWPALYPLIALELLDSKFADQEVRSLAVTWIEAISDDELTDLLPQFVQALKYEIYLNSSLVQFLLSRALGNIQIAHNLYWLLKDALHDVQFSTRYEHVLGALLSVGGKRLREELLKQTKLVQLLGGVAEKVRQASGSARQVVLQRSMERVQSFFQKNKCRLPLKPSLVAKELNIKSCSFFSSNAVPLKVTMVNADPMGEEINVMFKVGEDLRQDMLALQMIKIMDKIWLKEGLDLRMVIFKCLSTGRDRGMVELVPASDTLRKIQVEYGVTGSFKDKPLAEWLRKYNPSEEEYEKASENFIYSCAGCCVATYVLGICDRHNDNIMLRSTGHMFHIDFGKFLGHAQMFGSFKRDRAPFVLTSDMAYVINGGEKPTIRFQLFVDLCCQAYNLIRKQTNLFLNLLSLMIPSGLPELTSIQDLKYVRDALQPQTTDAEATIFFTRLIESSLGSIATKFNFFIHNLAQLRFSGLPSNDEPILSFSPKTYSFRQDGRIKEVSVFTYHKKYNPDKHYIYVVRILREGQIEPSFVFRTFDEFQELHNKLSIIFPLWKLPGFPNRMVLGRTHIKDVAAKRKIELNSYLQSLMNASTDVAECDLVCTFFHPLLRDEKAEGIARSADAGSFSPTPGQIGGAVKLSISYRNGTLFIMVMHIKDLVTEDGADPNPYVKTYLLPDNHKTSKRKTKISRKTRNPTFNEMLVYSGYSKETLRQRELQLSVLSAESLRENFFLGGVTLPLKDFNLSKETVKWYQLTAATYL

Target: HA‐FAK (UniProt Q00944)
Experiment: co-IP; HEK293T cells transfected with HA‐FAK and GFP‐PI3KC2α (WT, HBD or HBD deleted); HA‐FAK immunoprecipitated with anti HA antibody and protein G‐Sepharose, bound proteins blotted with anti GFP or anti HA; lysis in 50 mM Tris‐HCl, 150 mM NaCl, 1% NP‐40, 1 mM EDTA, 10% glycerol; 4 °C

binding: no binding
Substance: GFP‐PI3KC2αΔHBD (from UniProt O00443) (enzyme)
